# Experimental data published in PMC10867109.
# By UniProt entry, the sequences of proteins in these tests, tags left out.
# UniProt Q01105: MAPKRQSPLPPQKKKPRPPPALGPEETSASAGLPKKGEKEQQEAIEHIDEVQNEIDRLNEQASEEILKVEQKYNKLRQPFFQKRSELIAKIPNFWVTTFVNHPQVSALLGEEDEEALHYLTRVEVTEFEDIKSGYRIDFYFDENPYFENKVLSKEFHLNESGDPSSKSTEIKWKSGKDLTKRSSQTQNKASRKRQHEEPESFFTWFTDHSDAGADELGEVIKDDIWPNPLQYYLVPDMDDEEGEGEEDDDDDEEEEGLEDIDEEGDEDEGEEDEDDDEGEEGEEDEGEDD
# These are yes or no findings as the source states them, for the method shown. For part of these data: Binding seen in cells or lysates may run through a third protein. Some binding calls cover weakened binding; strength is not graded here. For part of these data: Sequences can lack the tags named with a protein.
# T1: S protein-Flag-streptavidin-binding protein-tagged ZBTB11 (UniProt O95625)
# T1 sequence: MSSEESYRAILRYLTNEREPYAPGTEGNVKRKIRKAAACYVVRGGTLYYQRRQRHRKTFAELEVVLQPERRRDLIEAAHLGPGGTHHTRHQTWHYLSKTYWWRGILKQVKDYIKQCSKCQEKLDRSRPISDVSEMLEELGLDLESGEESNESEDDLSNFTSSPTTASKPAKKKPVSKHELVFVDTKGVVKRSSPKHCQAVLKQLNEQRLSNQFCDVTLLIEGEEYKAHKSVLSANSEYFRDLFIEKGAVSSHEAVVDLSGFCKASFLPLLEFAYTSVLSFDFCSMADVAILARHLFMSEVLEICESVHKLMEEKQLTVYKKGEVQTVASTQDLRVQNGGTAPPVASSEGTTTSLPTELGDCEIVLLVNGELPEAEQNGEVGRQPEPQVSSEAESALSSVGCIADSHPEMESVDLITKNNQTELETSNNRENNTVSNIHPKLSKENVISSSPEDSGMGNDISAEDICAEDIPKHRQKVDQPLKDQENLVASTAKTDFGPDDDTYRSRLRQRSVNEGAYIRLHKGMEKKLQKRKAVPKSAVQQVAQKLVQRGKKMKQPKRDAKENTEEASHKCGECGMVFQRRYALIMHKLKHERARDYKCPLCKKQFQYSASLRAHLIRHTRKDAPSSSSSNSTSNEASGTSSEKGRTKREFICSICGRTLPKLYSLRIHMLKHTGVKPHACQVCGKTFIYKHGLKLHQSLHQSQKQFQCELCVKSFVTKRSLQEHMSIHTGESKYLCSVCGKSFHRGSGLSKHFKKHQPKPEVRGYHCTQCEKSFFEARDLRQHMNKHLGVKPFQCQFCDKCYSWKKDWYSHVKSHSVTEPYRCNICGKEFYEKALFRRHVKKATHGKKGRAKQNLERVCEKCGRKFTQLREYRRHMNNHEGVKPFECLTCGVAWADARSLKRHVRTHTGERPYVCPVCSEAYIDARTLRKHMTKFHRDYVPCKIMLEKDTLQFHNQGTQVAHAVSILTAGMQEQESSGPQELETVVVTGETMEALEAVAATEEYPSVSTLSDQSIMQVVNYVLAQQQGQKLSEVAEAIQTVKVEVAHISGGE
# T2: zinc finger and BTB domain-containing protein 11 (ZBTB11), endogenous (human (endogenous in H1299)) (UniProt O95625)
# T2 sequence: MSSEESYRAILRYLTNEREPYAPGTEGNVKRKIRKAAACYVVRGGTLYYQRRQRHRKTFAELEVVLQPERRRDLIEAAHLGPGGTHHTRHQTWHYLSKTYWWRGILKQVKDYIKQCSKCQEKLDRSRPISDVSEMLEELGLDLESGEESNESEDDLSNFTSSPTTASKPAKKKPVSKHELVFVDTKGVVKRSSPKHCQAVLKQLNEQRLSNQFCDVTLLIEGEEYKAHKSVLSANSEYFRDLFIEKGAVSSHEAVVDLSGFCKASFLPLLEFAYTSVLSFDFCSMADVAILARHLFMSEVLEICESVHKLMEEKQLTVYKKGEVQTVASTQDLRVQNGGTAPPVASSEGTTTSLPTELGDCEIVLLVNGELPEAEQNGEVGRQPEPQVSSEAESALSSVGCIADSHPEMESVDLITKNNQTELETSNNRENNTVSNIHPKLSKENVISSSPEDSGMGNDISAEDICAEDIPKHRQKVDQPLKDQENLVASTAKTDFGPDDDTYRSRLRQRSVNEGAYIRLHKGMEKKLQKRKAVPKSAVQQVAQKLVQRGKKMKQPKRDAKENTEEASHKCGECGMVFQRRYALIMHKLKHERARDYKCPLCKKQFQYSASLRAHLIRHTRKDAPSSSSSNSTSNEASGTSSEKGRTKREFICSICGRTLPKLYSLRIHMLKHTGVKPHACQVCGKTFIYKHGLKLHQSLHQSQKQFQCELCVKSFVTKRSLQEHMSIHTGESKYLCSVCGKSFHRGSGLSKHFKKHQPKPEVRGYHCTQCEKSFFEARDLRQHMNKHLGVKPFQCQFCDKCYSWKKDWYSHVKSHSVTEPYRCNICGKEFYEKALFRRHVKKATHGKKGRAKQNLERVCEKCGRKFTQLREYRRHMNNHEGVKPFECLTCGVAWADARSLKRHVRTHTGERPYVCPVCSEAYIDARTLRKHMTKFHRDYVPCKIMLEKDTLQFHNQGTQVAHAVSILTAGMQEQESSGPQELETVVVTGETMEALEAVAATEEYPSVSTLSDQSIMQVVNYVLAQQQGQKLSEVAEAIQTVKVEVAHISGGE
# T3: purified full-length ZBTB11 (UniProt O95625)
# T3 sequence: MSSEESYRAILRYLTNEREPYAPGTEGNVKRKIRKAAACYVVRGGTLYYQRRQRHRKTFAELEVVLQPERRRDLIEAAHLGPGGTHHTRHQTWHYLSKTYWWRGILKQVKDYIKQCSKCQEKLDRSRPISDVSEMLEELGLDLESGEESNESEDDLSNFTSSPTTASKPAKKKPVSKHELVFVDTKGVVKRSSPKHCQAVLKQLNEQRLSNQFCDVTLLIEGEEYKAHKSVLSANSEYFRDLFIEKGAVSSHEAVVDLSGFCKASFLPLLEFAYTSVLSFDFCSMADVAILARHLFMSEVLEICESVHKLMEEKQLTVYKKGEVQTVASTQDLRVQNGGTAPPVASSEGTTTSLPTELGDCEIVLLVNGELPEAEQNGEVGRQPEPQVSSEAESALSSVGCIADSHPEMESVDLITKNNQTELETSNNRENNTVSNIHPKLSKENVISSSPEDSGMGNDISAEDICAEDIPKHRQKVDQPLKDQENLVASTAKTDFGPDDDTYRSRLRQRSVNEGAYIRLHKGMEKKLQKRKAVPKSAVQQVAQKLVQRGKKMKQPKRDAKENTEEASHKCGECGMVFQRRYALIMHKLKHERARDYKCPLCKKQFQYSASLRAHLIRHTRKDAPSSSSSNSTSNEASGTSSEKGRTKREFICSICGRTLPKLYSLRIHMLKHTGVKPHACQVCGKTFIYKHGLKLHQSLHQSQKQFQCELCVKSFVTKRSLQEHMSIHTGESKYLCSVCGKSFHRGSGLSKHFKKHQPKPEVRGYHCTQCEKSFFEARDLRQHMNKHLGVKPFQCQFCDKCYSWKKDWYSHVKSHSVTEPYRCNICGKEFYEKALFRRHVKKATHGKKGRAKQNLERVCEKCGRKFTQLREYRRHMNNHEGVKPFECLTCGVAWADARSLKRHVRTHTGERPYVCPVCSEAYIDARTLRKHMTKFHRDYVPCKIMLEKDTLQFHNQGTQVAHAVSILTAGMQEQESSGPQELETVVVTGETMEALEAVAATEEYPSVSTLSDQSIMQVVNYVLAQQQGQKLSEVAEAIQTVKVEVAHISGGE
# T4: ZBTB11 fragment 522-568 aa (UniProt O95625)
# T4 sequence: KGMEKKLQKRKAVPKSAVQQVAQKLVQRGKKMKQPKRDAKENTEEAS
# T5: ZBTB11 linker region (amino acids 313-568) (UniProt O95625)
# T5 sequence: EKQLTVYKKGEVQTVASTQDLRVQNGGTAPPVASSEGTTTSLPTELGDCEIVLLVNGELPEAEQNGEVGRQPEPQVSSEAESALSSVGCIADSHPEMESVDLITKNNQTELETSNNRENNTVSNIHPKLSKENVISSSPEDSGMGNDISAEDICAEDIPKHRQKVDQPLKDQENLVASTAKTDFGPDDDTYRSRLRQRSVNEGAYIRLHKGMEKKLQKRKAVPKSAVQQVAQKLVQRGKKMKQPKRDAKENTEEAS
# Experiments:
# [1] = biological target: T1, S protein-Flag-streptavidin-binding protein-tagged ZBTB11; experiment: co-IP; HEK293T cells transiently transfected with Myc-SET with or without SFB-ZBTB11; NP40 lysis buffer, washes with BC100 buffer
# [2] = biological target: T2, zinc finger and BTB domain-containing protein 11 (ZBTB11), endogenous (human (endogenous in H1299)); experiment: co-IP; endogenous proteins in H1299 cells, precipitated with anti-SET or anti-ZBTB11 antibody and Protein A/G beads; NP40 buffer, 4 °C, washes with BC100 buffer
# [3] = biological target: T2, zinc finger and BTB domain-containing protein 11 (ZBTB11), endogenous (human (endogenous in H1299)); experiment: re-ChIP-qPCR; formaldehyde-fixed H1299 chromatin; primary ChIP with anti-ZBTB11 antibody, then ChIP of SET; qPCR at MMP9 loci
# [4] = biological target: T3, purified full-length ZBTB11; experiment: pull-down; GST or GST-fusion proteins from E. coli immobilised on GST-Bind resin, incubated with purified SET or ZBTB11 for 1 h at 4 °C, washed three times with BC100 buffer (100 mM NaCl), eluted with Laemmli buffer; both purified
# [5] = biological target: T4, ZBTB11 fragment 522-568 aa; experiment: as above
# [6] = biological target: T5, ZBTB11 linker region (amino acids 313-568); experiment: as above
# Flag-HA-tagged SET = Flag-HA-tagged SET (UniProt Q01105); experiment: co-IP; H1299-EV or H1299-FH-SET stable cells, complex purified by anti-Flag agarose, Western blot with a ZBTB11-specific antibody
# [7] = biological target: SET (SE translocation), endogenous (human (endogenous in H1299)) (UniProt Q01105); experiment: co-IP; endogenous proteins in H1299 cells, precipitated with anti-SET or anti-ZBTB11 antibody and Protein A/G beads; NP40 buffer, 4 °C, washes with BC100 buffer
# [8] = biological target: SET (SE translocation), endogenous (human (endogenous in H1299)) (UniProt Q01105); experiment: co-IP; endogenous proteins in H1299 cells, lysate in modified NP40 buffer with 1 mM MgCl2 and 250 U/ml benzonase to degrade DNA
molecule,measurement,setting,value
Myc-tagged SET (from UniProt Q01105 1-290),binding,[1],binds
"SET (SE translocation), endogenous (from UniProt Q01105 1-290)",binding,[2],binds
same,binding,[3],binds
purified full-length SET (from UniProt Q01105 1-290),binding,[4],binds
same,binding,[5],binds
same,binding,[6],binds
"zinc finger and BTB domain-containing protein 11 (ZBTB11), endogenous (protein, UniProt O95625 1-1053) MSSEESYRAILRYLTNEREPYAPGTEGNVKRKIRKAAACYVVRGGTLYYQRRQRHRKTFAELEVVLQPERRRDLIEAAHLGPGGTHHTRHQTWHYLSKTYWWRGILKQVKDYIKQCSKCQEKLDRSRPISDVSEMLEELGLDLESGEESNESEDDLSNFTSSPTTASKPAKKKPVSKHELVFVDTKGVVKRSSPKHCQAVLKQLNEQRLSNQFCDVTLLIEGEEYKAHKSVLSANSEYFRDLFIEKGAVSSHEAVVDLSGFCKASFLPLLEFAYTSVLSFDFCSMADVAILARHLFMSEVLEICESVHKLMEEKQLTVYKKGEVQTVASTQDLRVQNGGTAPPVASSEGTTTSLPTELGDCEIVLLVNGELPEAEQNGEVGRQPEPQVSSEAESALSSVGCIADSHPEMESVDLITKNNQTELETSNNRENNTVSNIHPKLSKENVISSSPEDSGMGNDISAEDICAEDIPKHRQKVDQPLKDQENLVASTAKTDFGPDDDTYRSRLRQRSVNEGAYIRLHKGMEKKLQKRKAVPKSAVQQVAQKLVQRGKKMKQPKRDAKENTEEASHKCGECGMVFQRRYALIMHKLKHERARDYKCPLCKKQFQYSASLRAHLIRHTRKDAPSSSSSNSTSNEASGTSSEKGRTKREFICSICGRTLPKLYSLRIHMLKHTGVKPHACQVCGKTFIYKHGLKLHQSLHQSQKQFQCELCVKSFVTKRSLQEHMSIHTGESKYLCSVCGKSFHRGSGLSKHFKKHQPKPEVRGYHCTQCEKSFFEARDLRQHMNKHLGVKPFQCQFCDKCYSWKKDWYSHVKSHSVTEPYRCNICGKEFYEKALFRRHVKKATHGKKGRAKQNLERVCEKCGRKFTQLREYRRHMNNHEGVKPFECLTCGVAWADARSLKRHVRTHTGERPYVCPVCSEAYIDARTLRKHMTKFHRDYVPCKIMLEKDTLQFHNQGTQVAHAVSILTAGMQEQESSGPQELETVVVTGETMEALEAVAATEEYPSVSTLSDQSIMQVVNYVLAQQQGQKLSEVAEAIQTVKVEVAHISGGE",binding,Flag-HA-tagged SET,binds
same,binding,[7],binds
same,binding,[8],binds
